Data: article PMC7982829
No constants are given. Whether binding was seen depends on the method and setting. In cells and extracts the contact can be indirect. Some results given as binding are weak or reduced against the parent protein; the word gives no strength. Each block holds one binder with its values, some of them ahead of it.

How the values were obtained:
[1] = molecular target: T1, TULP2 (tubby-like protein 2), endogenous in mouse testis (mouse (endogenous in testis)) (UniProt P46686); assay: co-IP; testes of WT mice lysed in RIPA buffer; pre-cleared with Protein A/G magnetic beads, incubated with anti-TULP2 or anti-CCT8 antibody at 4°C overnight; normal IgG as control; western blotting
T1 sequence: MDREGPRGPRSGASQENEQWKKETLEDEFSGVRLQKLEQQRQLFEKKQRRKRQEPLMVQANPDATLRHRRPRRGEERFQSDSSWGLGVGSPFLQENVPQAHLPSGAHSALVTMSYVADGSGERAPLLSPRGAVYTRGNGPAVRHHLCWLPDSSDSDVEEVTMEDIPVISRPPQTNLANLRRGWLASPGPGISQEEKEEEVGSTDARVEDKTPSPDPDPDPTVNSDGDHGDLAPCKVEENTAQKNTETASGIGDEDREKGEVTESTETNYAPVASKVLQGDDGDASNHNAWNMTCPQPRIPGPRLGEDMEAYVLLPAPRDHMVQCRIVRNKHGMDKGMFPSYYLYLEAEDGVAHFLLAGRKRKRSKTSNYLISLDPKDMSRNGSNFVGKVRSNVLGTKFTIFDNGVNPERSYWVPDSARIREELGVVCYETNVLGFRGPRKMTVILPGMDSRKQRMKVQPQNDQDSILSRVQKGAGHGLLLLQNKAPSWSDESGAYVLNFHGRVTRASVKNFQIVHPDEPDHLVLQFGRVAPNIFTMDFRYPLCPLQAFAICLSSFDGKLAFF

[2] = molecular target: T2, CCT8 (T-complex protein 1 subunit theta), endogenous in mouse testis (mouse (endogenous in testis)) (UniProt P42932); assay: as above
T2 sequence: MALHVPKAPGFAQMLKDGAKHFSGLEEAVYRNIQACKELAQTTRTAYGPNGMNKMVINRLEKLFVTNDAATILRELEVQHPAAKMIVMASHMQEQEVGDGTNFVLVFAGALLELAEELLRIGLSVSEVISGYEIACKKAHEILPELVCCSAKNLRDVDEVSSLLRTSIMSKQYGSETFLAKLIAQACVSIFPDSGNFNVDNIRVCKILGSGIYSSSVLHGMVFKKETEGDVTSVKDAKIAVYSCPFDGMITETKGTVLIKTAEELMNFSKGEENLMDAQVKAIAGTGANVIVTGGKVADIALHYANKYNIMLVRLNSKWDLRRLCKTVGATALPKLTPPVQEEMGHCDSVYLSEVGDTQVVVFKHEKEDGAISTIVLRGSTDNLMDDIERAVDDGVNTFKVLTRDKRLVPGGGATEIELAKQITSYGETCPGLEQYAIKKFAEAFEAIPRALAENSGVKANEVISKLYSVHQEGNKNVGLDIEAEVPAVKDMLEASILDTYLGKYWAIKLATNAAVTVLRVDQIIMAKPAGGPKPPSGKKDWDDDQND

- binding [1]: binds
B1: CCT8 (T-complex protein 1 subunit theta), endogenous in mouse testis (protein, UniProt P42932 1-548)
chain: T2 sequence

- binding [2]: binds
B2: TULP2 (tubby-like protein 2), endogenous in mouse testis (protein, UniProt P46686 1-562)
chain: T1 sequence
